Results are given in words; binding and its absence hold for the method and conditions named. In cells and extracts the contact can be indirect. Some binding calls cover weakened binding; strength is not graded here.
Key:
[1] = target: T1, caspase-3 (human) (UniProt P42574); experiment: co-immunoprecipitation, KMM-1 cells stimulated with rHuFasL for 4h or unstimulated
T1 sequence (looked up): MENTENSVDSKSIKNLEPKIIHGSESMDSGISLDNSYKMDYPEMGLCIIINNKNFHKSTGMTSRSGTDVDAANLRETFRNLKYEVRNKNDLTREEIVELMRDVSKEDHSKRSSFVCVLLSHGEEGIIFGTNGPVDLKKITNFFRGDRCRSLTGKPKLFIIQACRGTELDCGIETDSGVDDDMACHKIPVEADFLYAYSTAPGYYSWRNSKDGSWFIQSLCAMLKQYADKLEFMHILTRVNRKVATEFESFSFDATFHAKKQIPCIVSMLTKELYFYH

By UniProt entry, the sequences of proteins in these tests, tags left out. Where a name states a change or a piece, a line headed by the entry shows the natural chain unless it says otherwise.
UniProt Q8IU85: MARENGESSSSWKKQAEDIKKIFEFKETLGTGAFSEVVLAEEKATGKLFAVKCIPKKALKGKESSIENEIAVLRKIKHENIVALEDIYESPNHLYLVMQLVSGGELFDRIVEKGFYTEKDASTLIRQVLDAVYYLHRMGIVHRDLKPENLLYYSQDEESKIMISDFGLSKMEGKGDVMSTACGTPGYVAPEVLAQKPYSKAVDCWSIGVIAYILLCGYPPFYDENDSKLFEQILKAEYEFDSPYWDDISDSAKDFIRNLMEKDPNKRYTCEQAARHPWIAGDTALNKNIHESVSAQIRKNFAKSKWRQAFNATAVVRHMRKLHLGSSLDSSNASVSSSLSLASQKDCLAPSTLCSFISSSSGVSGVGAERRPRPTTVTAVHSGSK

[2] = target: T2, caspase-6 (human) (UniProt P55212); experiment: as above
T2 sequence (looked up): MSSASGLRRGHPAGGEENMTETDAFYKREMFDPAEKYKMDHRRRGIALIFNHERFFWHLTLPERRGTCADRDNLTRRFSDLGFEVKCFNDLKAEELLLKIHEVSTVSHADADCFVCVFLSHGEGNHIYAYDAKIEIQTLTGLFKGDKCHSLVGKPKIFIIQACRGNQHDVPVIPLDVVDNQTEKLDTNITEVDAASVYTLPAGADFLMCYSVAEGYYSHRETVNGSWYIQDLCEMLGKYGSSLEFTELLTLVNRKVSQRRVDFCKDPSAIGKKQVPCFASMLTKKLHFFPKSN

[3] = target: T1, caspase-3 (human); experiment: co-immunoprecipitation from KMM-1 lysates with anti-caspase-3, western blot for CAMK1D
[4] = target: T2, caspase-6 (human); experiment: co-immunoprecipitation from KMM-1 lysates with anti-caspase-6, western blot for CAMK1D
[5] = target: T3, caspase-7 (human) (UniProt P55210); experiment: co-immunoprecipitation from KMM-1 lysates with anti-caspase-7, western blot for CAMK1D
T3 sequence (looked up): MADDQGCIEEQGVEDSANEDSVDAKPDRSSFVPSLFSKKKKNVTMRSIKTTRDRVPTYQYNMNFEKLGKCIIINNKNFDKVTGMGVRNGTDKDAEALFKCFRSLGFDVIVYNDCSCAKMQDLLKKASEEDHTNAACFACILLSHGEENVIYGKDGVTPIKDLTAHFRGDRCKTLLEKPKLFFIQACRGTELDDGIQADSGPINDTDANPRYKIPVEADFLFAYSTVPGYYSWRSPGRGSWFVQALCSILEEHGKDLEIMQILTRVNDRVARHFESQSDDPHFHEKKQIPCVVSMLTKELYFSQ

binding [1]: binds | binding [2]: binds | binding [3]: binds | binding [4]: binds | binding [5]: binds
Substance: Calcium/calmodulin-dependent protein kinase type 1D (CAMK1D) (from UniProt Q8IU85 1-385) (enzyme)

— patent publication US20230228760A1, “INTRACELLULAR KINASE ASSOCIATED WITH RESISTANCE AGAINST T-CELL MEDIATED CYTOTOXICITY, AND USES THEREOF” (iOmx Therapeutics AG, priority 2020, published 2023)
